Experimental data published in ChEMBL document CHEMBL1144547, “Synthesis, antimalarial, antileishmanial, antimicrobial, cytotoxicity, and methemoglobin (MetHB) formation activities of new 8-quinolinamines” (Bioorg Med Chem, 2007).
Converted amounts (≈) assume the structure as drawn.

System: Candida albicans
Experiment: Antifungal activity against Candida albicans ATCC 90028 after 18 to 24 hrs
Assay type: functional, organism-based

Compound: C[C@@H]1[C@H](O)[C@@H](C)/C=C/C=C/C=C/C=C/C=C/C=C/C=C/[C@H](O[C@@H]2O[C@H](C)[C@@H](O)[C@H](N)[C@@H]2O)C[C@@H]2O[C@](O)(C[C@@H](O)C[C@@H](O)[C@H](O)CC[C@@H](O)C[C@@H](O)CC(=O)O[C@H]1C)C[C@H](O)[C@H]2C(=O)O [AMPHOTERICIN B]
- MIC: 0.63 µg/mL (≈ 0.682 µM)
